Data reported in paper PMC3814876.
These are yes or no findings as the source states them, for the method shown. For some assays here: In cells and extracts the contact can be indirect. Some entries that bind do so weakly or less than the wild type. For some assays here: Tags and fused reporters may be left off the sequences shown.

Sequences of proteins named here, by UniProt entry; tags and fusion partners are left off.
UniProt Q13158: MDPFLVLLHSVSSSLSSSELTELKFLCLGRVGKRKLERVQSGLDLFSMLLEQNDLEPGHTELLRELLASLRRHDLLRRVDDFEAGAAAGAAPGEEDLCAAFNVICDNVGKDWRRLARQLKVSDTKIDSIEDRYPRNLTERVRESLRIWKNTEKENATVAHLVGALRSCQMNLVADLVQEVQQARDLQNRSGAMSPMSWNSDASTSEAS
UniProt Q13546: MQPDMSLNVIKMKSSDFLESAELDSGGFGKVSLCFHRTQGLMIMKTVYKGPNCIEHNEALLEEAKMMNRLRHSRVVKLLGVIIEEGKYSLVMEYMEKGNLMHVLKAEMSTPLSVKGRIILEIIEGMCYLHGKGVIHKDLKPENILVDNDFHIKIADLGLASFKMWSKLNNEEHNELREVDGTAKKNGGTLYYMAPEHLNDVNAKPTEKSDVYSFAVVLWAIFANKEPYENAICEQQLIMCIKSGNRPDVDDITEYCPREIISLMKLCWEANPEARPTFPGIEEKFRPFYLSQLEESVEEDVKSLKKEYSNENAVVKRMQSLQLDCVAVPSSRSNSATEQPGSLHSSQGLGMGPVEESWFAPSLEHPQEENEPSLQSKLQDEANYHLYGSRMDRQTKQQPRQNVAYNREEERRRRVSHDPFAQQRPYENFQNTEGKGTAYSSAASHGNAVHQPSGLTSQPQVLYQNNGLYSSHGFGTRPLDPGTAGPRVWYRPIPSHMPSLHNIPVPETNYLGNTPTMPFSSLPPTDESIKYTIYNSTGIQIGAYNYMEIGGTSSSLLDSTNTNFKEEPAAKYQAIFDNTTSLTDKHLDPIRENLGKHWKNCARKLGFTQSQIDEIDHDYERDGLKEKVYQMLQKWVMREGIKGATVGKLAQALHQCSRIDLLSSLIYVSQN

Columns and labels:
[1] = target: pGBT9-FADD (human) (UniProt Q13158); assay: two-hybrid; Matchmaker Gal4 system; FADD as bait in pGBT9, DDX24 as prey in pGADT7; colonies seeded on SD-His/-Leu/-Trp plates
[2] = target: c-Myc-RIP1 (UniProt Q13546); assay: co-IP; expression vectors transfected into 293T cells; lysis in NP40 IP buffer (50 mM Tris pH 8.0, 150 mM NaCl, 0.5% NP-40) or RIPA; antibody overnight at 4°C, Protein G 3 hours; immunoblot for c-Myc or FLAG; in Figure 6G-I with or without co-expressed DDX24 or DDX24 siRNA
[3] = target: FLAG-FADD (UniProt Q13158); assay: as above

binding [2] | binding [3] | Binder | other results
– | – | pGADT7-DDX24 (protein, UniProt Q9GZR7 1-859) MKLKDTKSRPKQSSCGKFQTKGIKVVGKWKEVKIDPNMFADGQMDDLVCFEELTDYQLVSPAKNPSSLFSKEAPKRKAQAVSEEEEEEEGKSSSPKKKIKLKKSKNVATEGTSTQKEFEVKDPELEAQGDDMVCDDPEAGEMTSENLVQTAPKKKKNKGKKGLEPSQSTAAKVPKKAKTWIPEVHDQKADVSAWKDLFVPRPVLRALSFLGFSAPTPIQALTLAPAIRDKLDILGAAETGSGKTLAFAIPMIHAVLQWQKRNAAPPPSNTEAPPGETRTEAGAETRSPGKAEAESDALPDDTVIESEALPSDIAAEARAKTGGTVSDQALLFGDDDAGEGPSSLIREKPVPKQNENEEENLDKEQTGNLKQELDDKSATCKAYPKRPLLGLVLTPTRELAVQVKQHIDAVARFTGIKTAILVGGMSTQKQQRMLNRRPEIVVATPGRLWELIKEKHYHLRNLRQLRCLVVDEADRMVEKGHFAELSQLLEMLNDSQYNPKRQTLVFSATLTLVHQAPARILHKKHTKKMDKTAKLDLLMQKIGMRGKPKVIDLTRNEATVETLTETKIHCETDEKDFYLYYFLMQYPGRSLVFANSISCIKRLSGLLKVLDIMPLTLHACMHQKQRLRNLEQFARLEDCVLLATDVAARGLDIPKVQHVIHYQVPRTSEIYVHRSGRTARATNEGLSLMLIGPEDVINFKKIYKTLKKDEDIPLFPVQTKYMDVVKERIRLARQIEKSEYRNFQACLHNSWIEQAAAALEIELEEDMYKGGKADQQEERRRQKQMKVLKKELRHLLSQPLFTESQKTKYPTQSGKPPLLVSAPSKSESALSCLSKQKKKKTKKPKEPQPEQPQPSTSAN | binding [1]: binds
binds | – | FLAG-DDX24 (protein, UniProt Q9GZR7 1-859) MKLKDTKSRPKQSSCGKFQTKGIKVVGKWKEVKIDPNMFADGQMDDLVCFEELTDYQLVSPAKNPSSLFSKEAPKRKAQAVSEEEEEEEGKSSSPKKKIKLKKSKNVATEGTSTQKEFEVKDPELEAQGDDMVCDDPEAGEMTSENLVQTAPKKKKNKGKKGLEPSQSTAAKVPKKAKTWIPEVHDQKADVSAWKDLFVPRPVLRALSFLGFSAPTPIQALTLAPAIRDKLDILGAAETGSGKTLAFAIPMIHAVLQWQKRNAAPPPSNTEAPPGETRTEAGAETRSPGKAEAESDALPDDTVIESEALPSDIAAEARAKTGGTVSDQALLFGDDDAGEGPSSLIREKPVPKQNENEEENLDKEQTGNLKQELDDKSATCKAYPKRPLLGLVLTPTRELAVQVKQHIDAVARFTGIKTAILVGGMSTQKQQRMLNRRPEIVVATPGRLWELIKEKHYHLRNLRQLRCLVVDEADRMVEKGHFAELSQLLEMLNDSQYNPKRQTLVFSATLTLVHQAPARILHKKHTKKMDKTAKLDLLMQKIGMRGKPKVIDLTRNEATVETLTETKIHCETDEKDFYLYYFLMQYPGRSLVFANSISCIKRLSGLLKVLDIMPLTLHACMHQKQRLRNLEQFARLEDCVLLATDVAARGLDIPKVQHVIHYQVPRTSEIYVHRSGRTARATNEGLSLMLIGPEDVINFKKIYKTLKKDEDIPLFPVQTKYMDVVKERIRLARQIEKSEYRNFQACLHNSWIEQAAAALEIELEEDMYKGGKADQQEERRRQKQMKVLKKELRHLLSQPLFTESQKTKYPTQSGKPPLLVSAPSKSESALSCLSKQKKKKTKKPKEPQPEQPQPSTSAN | –
– | binds | c-Myc-DDX24 (protein, UniProt Q9GZR7 1-859) MKLKDTKSRPKQSSCGKFQTKGIKVVGKWKEVKIDPNMFADGQMDDLVCFEELTDYQLVSPAKNPSSLFSKEAPKRKAQAVSEEEEEEEGKSSSPKKKIKLKKSKNVATEGTSTQKEFEVKDPELEAQGDDMVCDDPEAGEMTSENLVQTAPKKKKNKGKKGLEPSQSTAAKVPKKAKTWIPEVHDQKADVSAWKDLFVPRPVLRALSFLGFSAPTPIQALTLAPAIRDKLDILGAAETGSGKTLAFAIPMIHAVLQWQKRNAAPPPSNTEAPPGETRTEAGAETRSPGKAEAESDALPDDTVIESEALPSDIAAEARAKTGGTVSDQALLFGDDDAGEGPSSLIREKPVPKQNENEEENLDKEQTGNLKQELDDKSATCKAYPKRPLLGLVLTPTRELAVQVKQHIDAVARFTGIKTAILVGGMSTQKQQRMLNRRPEIVVATPGRLWELIKEKHYHLRNLRQLRCLVVDEADRMVEKGHFAELSQLLEMLNDSQYNPKRQTLVFSATLTLVHQAPARILHKKHTKKMDKTAKLDLLMQKIGMRGKPKVIDLTRNEATVETLTETKIHCETDEKDFYLYYFLMQYPGRSLVFANSISCIKRLSGLLKVLDIMPLTLHACMHQKQRLRNLEQFARLEDCVLLATDVAARGLDIPKVQHVIHYQVPRTSEIYVHRSGRTARATNEGLSLMLIGPEDVINFKKIYKTLKKDEDIPLFPVQTKYMDVVKERIRLARQIEKSEYRNFQACLHNSWIEQAAAALEIELEEDMYKGGKADQQEERRRQKQMKVLKKELRHLLSQPLFTESQKTKYPTQSGKPPLLVSAPSKSESALSCLSKQKKKKTKKPKEPQPEQPQPSTSAN | –
– | binds | c-Myc-DDX24-N (domain or fragment, UniProt Q9GZR7 1-577) MKLKDTKSRPKQSSCGKFQTKGIKVVGKWKEVKIDPNMFADGQMDDLVCFEELTDYQLVSPAKNPSSLFSKEAPKRKAQAVSEEEEEEEGKSSSPKKKIKLKKSKNVATEGTSTQKEFEVKDPELEAQGDDMVCDDPEAGEMTSENLVQTAPKKKKNKGKKGLEPSQSTAAKVPKKAKTWIPEVHDQKADVSAWKDLFVPRPVLRALSFLGFSAPTPIQALTLAPAIRDKLDILGAAETGSGKTLAFAIPMIHAVLQWQKRNAAPPPSNTEAPPGETRTEAGAETRSPGKAEAESDALPDDTVIESEALPSDIAAEARAKTGGTVSDQALLFGDDDAGEGPSSLIREKPVPKQNENEEENLDKEQTGNLKQELDDKSATCKAYPKRPLLGLVLTPTRELAVQVKQHIDAVARFTGIKTAILVGGMSTQKQQRMLNRRPEIVVATPGRLWELIKEKHYHLRNLRQLRCLVVDEADRMVEKGHFAELSQLLEMLNDSQYNPKRQTLVFSATLTLVHQAPARILHKKHTKKMDKTAKLDLLMQKIGMRGKPKVIDLTRNEATVETLTETKIHCETDEKDF | –
binds | – | IRF7 (protein, UniProt Q92985 1-503) MALAPERAAPRVLFGEWLLGEISSGCYEGLQWLDEARTCFRVPWKHFARKDLSEADARIFKAWAVARGRWPPSSRGGGPPPEAETAERAGWKTNFRCALRSTRRFVMLRDNSGDPADPHKVYALSRELCWREGPGTDQTEAEAPAAVPPPQGGPPGPFLAHTHAGLQAPGPLPAPAGDKGDLLLQAVQQSCLADHLLTASWGADPVPTKAPGEGQEGLPLTGACAGGPGLPAGELYGWAVETTPSPGPQPAALTTGEAAAPESPHQAEPYLSPSPSACTAVQEPSPGALDVTIMYKGRTVLQKVVGHPSCTFLYGPPDPAVRATDPQQVAFPSPAELPDQKQLRYTEELLRHVAPGLHLELRGPQLWARRMGKCKVYWEVGGPPGSASPSTPACLLPRNCDTPIFDFRVFFQELVEFRARQRRGSPRYTIYLGFGQDLSAGRPKEKSLVLVKLEPWLCRVHLEGTQREGVSSLDSSSLSLCLSSANSLYDDIECFLMELEQPA | –
